The list does not hold the whole screen: it gathers tests that were run many times, whatever their T/C, doses with no T/C, and many T/C values between a quarter and a half above the control. Further doses and runs are listed elsewhere. T/C gives the treated animals as a percentage of the vehicle group. Some entries give survivors of the animals treated and no T/C: the source holds a T/C of zero for them, seemingly a mark for toxic or unscored doses. Some doses without a T/C left all or most animals alive at the check, yet need not have been tolerated: the source hardly ever lists a survival T/C far under the control, and the zero likely stands for such cases as well. Counts of survivors are from the toxicity check (mostly the fifth day) where no day follows; animals may have died later. Schedules are NCI's codes, read here as Q, the interval in days (D) or hours (H), X, the number of doses. Some doses were run more than once; their values stand side by side, smallest first. For survival time, this PubChem deposit counts one and a half times the control or more as active, and values a quarter to a half above the control carry no call in these data; other NCI protocols may use other cut-offs. Some T/C values carry the count of animals alive at the toxicity check (mostly the fifth day); without a count, all were alive then.
Tested on: BDF1 mice, B16 melanoma ip, median survival T/C
Assay: NCI In Vivo Anticancer Drug Screen. Data for tumor model B16 Melanoma (intraperitoneal) in B6D2F1 (BDF1) mice
Settings: T/C endpoint: median survival time, higher T/C = longer survival
Outline: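 Tumor-bearing mice received test compound or vehicle. Survival or tumor size was then measured in both groups. The treated-group figure was divided by the control-group figure.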

[1] = dose: 200.0 mg/kg/injection, schedule: Q01DX009 (ip), vehicle: Klucel (hydroxypropylcellulose) (HPC)
[2] = dose: 400.0 mg/kg/injection, schedule: Q01DX009 (ip), vehicle: saline with Tween-80
[3] = dose: 50.0 mg/kg/injection, schedule: Q01DX009 (ip), vehicle: Klucel (hydroxypropylcellulose) (HPC)
[4] = dose: 100.0 mg/kg/injection, schedule: Q01DX009 (ip), vehicle: Klucel (hydroxypropylcellulose) (HPC)

SMILES: Cc1c2ccnc(C(N)=O)c2c(C)c2c1[nH]c1ccccc12
- T/C (dose: 400.0 mg/kg/injection, schedule: Q04DX003 (ip), vehicle: distilled water + Tween-80): 134 % of control
- T/C (dose: 800.0 mg/kg/injection, schedule: Q04DX003 (ip), vehicle: distilled water + Tween-80): 146 % of control

SMILES: C/C=C/c1cc2n(c1)C(=O)c1cc(OC3OC(C)C(NC)C(C)(O)C3O)c(C)c(O)c1NC2O (stereo not given)
- survivor count (dose: 0.04 mg/kg/injection, schedule: Q04DX003 (ip), vehicle: DMSO): 8 of 10
- survivor count (dose: 0.08 mg/kg/injection, schedule: Q04DX003 (ip), vehicle: DMSO): 4 of 10
- survivor count (dose: 0.16 mg/kg/injection, schedule: Q04DX003 (ip), vehicle: DMSO): 1 of 10
- survivor count (dose: 0.32 mg/kg/injection, schedule: Q04DX003 (ip), vehicle: DMSO): 0 of 10
- T/C (dose: 0.3 micrograms/kg/injection, schedule: Q04DX003 (ip), vehicle: saline): 136 % of control
- T/C (dose: 4.0 micrograms/kg/injection, schedule: Q04DX003 (ip), vehicle: saline): 136 % of control
- survivor count (dose: 8.0 micrograms/kg/injection, schedule: Q04DX003 (ip), vehicle: saline): 6 of 10
- survivor count (dose: 32.0 micrograms/kg/injection, schedule: Q04DX003 (ip), vehicle: saline): 1 of 10

SMILES: OCC1OC(n2cnc3c(SCc4ccccc4)ncnc32)C(O)C1O (stereo not given)
- T/C (dose: 75.0 mg/kg/injection, schedule: Q01DX009 (ip), vehicle: saline with Tween-80): 129 % of control
- T/C (dose: 150.0 mg/kg/injection, schedule: Q01DX009 (ip), vehicle: saline with Tween-80): 145 % of control
- survivor count (dose: 300.0 mg/kg/injection, schedule: Q01DX009 (ip), vehicle: saline with Tween-80): 8 of 9

SMILES: [CH3][Sn]([CH3])([CH3])[S]C(=S)N1CCOCC1
- survivor count (dose: 3.0 mg/kg/injection, schedule: Q01DX009 (ip), vehicle: Klucel (hydroxypropylcellulose) (HPC)): 0 of 10

SMILES: CC[C@]1(O)C[C@H](OC2CC(N(C)C)C(OC3CC(O)C(O)C(C)O3)C(C)O2)c2c(cc3c(c2O)C(=O)c2c(O)ccc(O)c2C3=O)[C@H]1C(=O)OC (stereo not given in full)
- T/C (dose: 0.5 mg/kg/injection, schedule: Q01DX009 (ip), vehicle: saline with Tween-80): 138 % of control
- T/C (dose: 0.8 mg/kg/injection, schedule: Q01DX009 (ip), vehicle: carboxymethylcellulose (CMC)): 140 % of control
- T/C (dose: 1.6 mg/kg/injection, schedule: Q01DX009 (ip), vehicle: carboxymethylcellulose (CMC)): 149 % of control

SMILES: C[C@@H]1CCC[C@@H](NC(=O)N(CCCl)N=O)C1
- T/C (dose: 9.38 mg/kg/injection, schedule: Q01DX009 (ip), vehicle: Klucel (hydroxypropylcellulose) (HPC)): 131 % of control
- T/C (dose: 9.4 mg/kg/injection, schedule: Q01DX009 (ip), vehicle: Klucel (hydroxypropylcellulose) (HPC)): 134 % of control
- survivor count (dose: 75.0 mg/kg/injection, schedule: Q01DX009 (ip), vehicle: Klucel (hydroxypropylcellulose) (HPC)): 10 of 10

SMILES: FC(F)(F)c1ccc(Cl)c(NC2=NCCCS2)c1
- survivor count [1]: 10 of 10

SMILES: COC(=O)[C@]1(C)CCC[C@]2(C)[C@H]3CC4OO[C@@]3(CC[C@H]21)[C@H]1O[C@@]41C(C)C
- survivor count [2]: 1 of 6

SMILES: CCCCOCN(COCCCC)C(C)Cc1ccccc1 (stereo not given)
- survivor count [2]: 0 of 10 and 4 of 10

SMILES: Cc1cc(Cc2cc(C)cc(C(C)(C)C)c2O)c(O)c(Cc2cc(C)cc(C(C)(C)C)c2O)c1
- survivor count (dose: 400.0 mg/kg/injection, schedule: Q04DX003 (ip), vehicle: gum acacia): 10 of 10

SMILES: Clc1ccc2c(c1)C(Nc1cc3c4ccccc4ccc3c3ccccc13)c1cc(Cl)cc(Cl)c1-2 (stereo not given)
- survivor count (dose: 12.5 mg/kg/injection, schedule: Q01DX009 (ip), vehicle: saline with Tween-80): 6 of 6
- survivor count (dose: 25.0 mg/kg/injection, schedule: Q01DX009 (ip), vehicle: saline with Tween-80): 6 of 6
- survivor count (dose: 50.0 mg/kg/injection, schedule: Q01DX009 (ip), vehicle: saline with Tween-80): 6 of 6
- survivor count (dose: 100.0 mg/kg/injection, schedule: Q01DX009 (ip), vehicle: saline with Tween-80): 6 of 6
- survivor count (dose: 200.0 mg/kg/injection, schedule: Q01DX009 (ip), vehicle: saline with Tween-80): 6 of 6
- survivor count [2]: 6 of 6
- survivor count (dose: 800.0 mg/kg/injection, schedule: Q01DX009 (ip), vehicle: saline with Tween-80): 6 of 6

SMILES: C1CC2(CCN1)SSC1(CCNCC1)S2
- survivor count (dose: 400.0 mg/kg/injection, schedule: Q04DX003 (ip), vehicle: saline): 6 of 10

SMILES: Cc1ccc(N2C(=O)CC(Sc3ccccc3N)C2=O)cc1 (stereo not given)
- survivor count [3]: 10 of 10
- survivor count [1]: 7 of 10

SMILES: CCN(CC)CCSC(=O)C(O)(c1ccccc1)C1CCCC1 (stereo not given)
- T/C (dose: 50.0 mg/kg/injection, schedule: Q01DX009 (ip), vehicle: saline): 134 % of control
- T/C (dose: 100.0 mg/kg/injection, schedule: Q01DX009 (ip), vehicle: saline): 127 % of control [5 of 6 alive]

SMILES: CCCCCCOP(=O)(CCCCCC)OCCCCCC
- survivor count (dose: 25.0 mg/kg/injection, schedule: Q01DX009 (ip), vehicle: Klucel (hydroxypropylcellulose) (HPC)): 6 of 6

SMILES: COC(=O)C1C(O)C(C)C(O)C(C)C=C(C)C2=C3C(=C(C)C(=O)c4c(O)c(c(C)c(OC(C)=O)c43)NC(=O)C(C)=C/C=C\C(C)C(O)C(C)C1O)OCO2 (stereo not given)
- survivor count [3]: 10 of 10
- survivor count [4]: 9 of 10
- survivor count (dose: 100.0 mg/kg/injection, schedule: Q01DX009 (ip), vehicle: carboxymethylcellulose (CMC)): 0 of 10
- survivor count [1]: 0 of 10 and 0 of 6
- survivor count (dose: 400.0 mg/kg/injection, schedule: Q01DX009 (ip), vehicle: Klucel (hydroxypropylcellulose) (HPC)): 0 of 6

SMILES: N=C(N)Sc1ccccn1
- survivor count (dose: 200.0 mg/kg/injection, schedule: Q01DX009 (ip), vehicle: saline): 10 of 10
- survivor count (dose: 200.0 mg/kg/injection, schedule: Q01DX009 (ip), vehicle: suspension in saline): 10 of 10
- survivor count (dose: 400.0 mg/kg/injection, schedule: Q01DX009 (ip), vehicle: saline): 9 of 10
- survivor count (dose: 400.0 mg/kg/injection, schedule: Q01DX009 (ip), vehicle: suspension in saline): 1 of 10

SMILES: O=[N+]([O-])c1ccc2nc3c(nc2c1)-c1cccc2cccc-3c12
- survivor count [2]: 8 of 10

SMILES: O=C1C(Cl)=C(N2CC2)C(=O)C(Cl)=C1N1CC1
- T/C (dose: 5.0 mg/kg/injection, schedule: Q01DX009 (ip), vehicle: saline): 125 % of control
- survivor count (dose: 10.0 mg/kg/injection, schedule: Q01DX009 (ip), vehicle: saline): 5 of 10
- survivor count (dose: 20.0 mg/kg/injection, schedule: Q01DX009 (ip), vehicle: saline): 0 of 10

SMILES: ClCC[Se](Cl)(Cl)c1ccccc1
- survivor count (dose: 6.25 mg/kg/injection, schedule: Q01DX009 (ip), vehicle: saline): 7 of 10
- survivor count (dose: 12.5 mg/kg/injection, schedule: Q01DX009 (ip), vehicle: saline): 3 of 10
- survivor count (dose: 25.0 mg/kg/injection, schedule: Q01DX009 (ip), vehicle: saline): 4 of 10

SMILES: CCCCCCCCCCCCCOC(=O)CC(C(=O)OCCCCCCCCCCCCC)S(=O)(=O)O (stereo not given)
- T/C [3]: 145 % of control
- T/C [4]: 135 % of control
